Drawing on PubChem BioAssay AID493014 (National Center for Advancing Translational Sciences (NCATS), 2011), this text covers AC50 for 61 compounds.

Broadly, the AC50 is the concentration giving half of the maximal activity seen.

The other results are listed elsewhere or left out. The main result of the screen is listed elsewhere. These columns were measured beside it and carry no call. Most of these compounds were active or inconclusive in the main read-out, so they are no random draw. Potencies come from curve fits of mixed quality, noted in brackets.

The assay in a line: qHTS Assay to Find Inhibitors of Chronic Active B-Cell Receptor Signaling. The note with it: ABC-DLBCL IkBa-CBG/CBR reporter, luminescence ratio (green luciferase fused to IkBa over red control in TMD8 lymphoma cells), 4 h. In outline: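 Doxycycline induced both beetle luciferases in TMD8 lymphoma cells; IKK-driven degradation limits the IkappaBalpha-fused green signal, while red luminescence normalises for cell number and nonspecific effects. Compounds tested up to 46 uM, 4 hrs.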

[1] abbreviates: measured here: CBR red luminescence, cell number.
[2] abbreviates: measured here: IkBa-CBG green luminescence.

On to `COC(=O)c1ccc(NC(=O)c2cc3c(CO)cnc(C)c3oc2=Nc2cccc(C(N)=O)c2)cc1`, for which, under setting [1], the AC50 was 28.2 µM [falling, partial curve, poor fit]. In the case of `Cc1cc(Cl)ccc1NC(=O)CSc1n[nH]c(N)n1`, the AC50 under setting [1] is 29.1 µM [rising, single point]. Same read-out and setting: to `COc1ccccc1CN1CCNC(=O)C1CC(=O)NCC1CCOCC1` (stereo not drawn) belongs 3.98 µM [rising, partial curve, poor fit]. In the case of `CCC(C)C(=O)Nc1cc([N+](=O)[O-])ccc1Cl` (stereo not drawn), under setting [1], the half-maximal activity concentration (AC50) is 18.4 µM [rising, single point].

For `O=C(NCc1ccco1)c1ccc(Cn2c(=O)c3ccccc3n(Cc3cccc(Cl)c3)c2=O)cc1`, under setting [1], the AC50 was 7.31 µM [rising, partial curve, poor fit].

Regarding `CCC1(C)Cc2c(sc3nc(SC)[nH]c(=S)c23)CO1` (stereo not drawn), the AC50 under setting [1] is 6.31 µM [rising, single point].

For `CCn1c(C)c(CCC(=O)O)c(=O)n2nc(-c3ccccc3OC)cc12`, the AC50 under setting [1] is 13 µM [rising, partial curve, poor fit]. With `O=C(CCCN1C(=O)C(c2ccccc2)Oc2cccnc21)Nc1cccc(F)c1` (stereo not drawn), the half-maximal activity concentration (AC50) under setting [1] was 35.5 µM [falling, single point].

On to `COc1ccccc1N1CCN(C(=O)CN(c2ccccc2OC)S(=O)(=O)c2ccccc2)CC1`, for which the half-maximal activity concentration (AC50) under setting [1] is 2.06 µM [falling, full curve]. In the case of `O=C1CSC(=S)N1/N=C/c1cccc(C(F)(F)F)c1`, under setting [1], the AC50 was 14.1 µM [rising, partial curve, poor fit]. As to `CN(Cc1cn[nH]c1-c1ccc(-c2ccccc2)cc1)CC1CCOCC1`, the AC50 under setting [1] was 35.5 µM [rising, single point]. Regarding `CCCCN1C(=O)C(=O)NC[C@@H]1C(C)CC` (stereo partly drawn), the AC50 under setting [1] was 3.55 µM [falling, partial curve, poor fit]. For `CCCCc1ccc(/C=C2\C(=O)c3ccccc3C(O)=C2C(=O)OCC)cc1`, the AC50 is 0.58 µM [falling, full curve, poor fit] under setting [1] and 29.1 µM [falling, single point] under setting [2].

With `O=C(Nc1cc(S(=O)(=O)Nc2ccccc2Cl)ccc1O)c1ccc(F)cc1F`, the AC50 under setting [1] was 0.116 µM [falling, full curve, poor fit]. For the compound `Cc1cccc(C(=O)NNC(=O)c2c(O)c3ccccc3n(C)c2=O)c1`, the concentration at half-maximal activity (AC50) under setting [1] is 3.55 µM [falling, partial curve, poor fit]. Still for that read-out and setting: to `O=C(Nc1ccc(F)cc1)N1CCC(c2nc3c(nnn3Cc3ccccc3Cl)c(=O)[nH]2)CC1` belongs 35.5 µM [falling, single point]; to `CC(C)N(C(C)C)S(=O)(=O)c1ccc(NN)nc1`, 0.224 µM [rising, full curve, poor fit]. Regarding `Cc1nn(-c2ccccc2)c(C)c1/C=C/C(=O)OC(C)C(=O)Nc1ncc(Cl)cc1Cl` (stereo not drawn), the AC50 under setting [1] is 0.092 µM [rising, full curve, poor fit]. For the compound `CS(=O)(=O)Nc1cccc(C2=NN(C(=O)c3cccc(F)c3)C(c3cccs3)C2)c1` (stereo not drawn), under setting [1], the concentration at half-maximal activity (AC50) was 35.5 µM [falling, single point]. In the case of `Cc1cc(C)nc(SCc2ccc(C(=O)O)o2)n1`, the AC50 under setting [1] is 2.31 µM [falling, full curve, poor fit]. `O=C(Nc1ccc2c(c1)OCO2)c1cc(-c2ccc(O)cc2)on1`: the concentration at half-maximal activity (AC50) under setting [1] was 0.891 µM [falling, full curve].

`COc1cc(C(c2c(C)[nH][nH]c2=O)c2c(C)[nH][nH]c2=O)cc(Br)c1OC`: the AC50 under setting [1] is 11.2 µM [falling, partial curve, poor fit]. Consider `CN(Cc1ccccc1)C(=O)COC(=O)c1ccc(Cl)c(N)c1`, for which the AC50 under setting [1] is 29.1 µM [falling, single point].

Consider `Cc1ccc(S(=O)(=O)NC2CC(=O)N(c3ccc4c(c3)OCCO4)C2)cc1` (stereo not drawn), for which the AC50 under setting [1] was 29.1 µM [rising, partial curve, poor fit]. The same measure, in the same setting: to `NC(=O)CSc1nnc(-c2ccc(S(=O)(=O)N3CCOCC3)cc2)n1Cc1ccccc1` belongs 29.1 µM [falling, partial curve, poor fit]; to `COC(=O)c1c(NC(=O)CN2CCN(c3ccccc3Cl)CC2)sc(C)c1C`, 1.64 µM [falling, partial curve, poor fit]; to `C=C(C)Cn1c(CCCNC(=O)C(C)(C)C)nc2ccccc21`, 32.6 µM [falling, single point]. For `CCC(=O)c1ccc(OCC(O)CN2C(=O)NC(C)(C)C2=O)cc1` (stereo not drawn), under setting [1], the half-maximal activity concentration (AC50) was 9.2 µM [rising, partial curve, poor fit].

`COCC(=O)N1CCC(Oc2ccc(C(=O)N3CCN(C)C[C@@H]3C(C)C)cc2)CC1`: the AC50 under setting [1] is 0.112 µM [falling, full curve, poor fit]. As for `O=C(Nc1ccc(OCc2ccccc2)cc1)c1ccccc1`, the AC50 under setting [1] was 0.112 µM [rising, full curve, poor fit].

Take `CCn1cnc2c1c(=O)n(CC(=O)Nc1ccc(C(N)=O)cc1)c(=O)n2Cc1ccccc1`: the AC50 under setting [1] is 3.16 µM [rising, partial curve]. Consider `O=C(CCS(=O)(=O)c1ccccc1)Nc1ccc2c(c1)C(=O)NC2=O`, for which, under setting [1], the AC50 is 10 µM [rising, partial curve]. On the same count and under the same terms, the value for `CCOC(=O)c1c(NC(=S)Nc2ccc(OCC)cc2)sc2c1CCN(C)C2` was 12.6 µM [rising, single point].

Regarding `CCn1c(=O)c(C(=O)NNC(=O)c2ccccc2F)c(O)c2ccccc21`, the concentration at half-maximal activity (AC50) under setting [1] is 0.794 µM [falling, full curve, poor fit]. With `NC(=O)c1sc2nc3c(c(-c4ccco4)c2c1N)CCCC3`, the AC50 runs as follows: under setting [1], 10 µM [falling, partial curve, poor fit]; under setting [2], 6.31 µM [rising, partial curve, poor fit]. As to `COc1ccc(C(O)C(CC(=O)NCCCOC(C)C)C(=O)NCCCOC(C)C)cc1OC` (stereo not drawn), the half-maximal activity concentration (AC50) under setting [1] is 0.164 µM [rising, full curve, poor fit]. Regarding `CCn1nc(NC(=O)c2cccnc2)c2cc3ccccc3nc21`, the half-maximal activity concentration (AC50) under setting [1] was 5.17 µM [falling, partial curve]. In the case of `O=C(NCc1ccccc1CN1CCCC1)c1ccc(OCc2cscn2)cc1`, the AC50 under setting [1] is 5.8 µM [rising, full curve, poor fit].

For the compound `CCc1noc(C)c1C(=O)Nc1nc2c(C)cc(C)cc2s1`, the AC50 under setting [1] is 16.4 µM [falling, partial curve, poor fit]. Turning to `CCC(=O)N1N=C(c2ccccc2)CC1c1ccccc1` (stereo not drawn), under setting [1], the AC50 was 35.5 µM [rising, single point]. For the compound `COc1cc(/C=N/NC(N)=O)ccc1OC(=O)c1cccs1`, the AC50 under setting [1] was 25.1 µM [rising, single point]. Take `CCC1CCCCN1Cc1ccc(CNS(=O)(=O)c2ccc3c(c2)oc(=O)n3C)o1` (stereo not drawn): the AC50 under setting [1] was 35.5 µM [falling, single point]. On the same count and under the same terms, the value for `O=S(=O)(c1cccs1)N1CCN(c2ccc(O)cc2)CC1` was 0.0891 µM [rising, full curve, poor fit]. On to `CC(C)(C)OC(=O)C[C@@H]1C/C=C\C[C@@H](CC(=O)N[C@H](CO)Cc2ccccc2)C(=O)N2CCC[C@@H]2COC1=O`, for which, under setting [1], the AC50 was 29.1 µM [rising, partial curve, poor fit].

Consider `C/C(=N\NS(=O)(=O)c1ccc([N+](=O)[O-])cc1)c1ccc(NC(=O)c2ccco2)cc1`, for which the concentration at half-maximal activity (AC50) under setting [1] was 35.5 µM [falling, single point]. As to `COc1ccc(Cl)cc1NC(=O)CSc1nnc(C2CC2)n1N`, the half-maximal activity concentration (AC50) under setting [1] was 8.2 µM [falling, partial curve, poor fit]. As for `COc1ccc(C2CC(c3cccs3)=NN2c2ccc(C=O)cc2)cc1` (stereo not drawn), the AC50 under setting [1] is 11.6 µM [rising, partial curve]. Same read-out and setting: the value for `c1ccc(-c2ccccc2-n2cnnn2)cc1` was 10 µM [rising, partial curve]; that for `O=C(Cn1nc([N+](=O)[O-])nc1Br)NC1CCCCC1` was 20 µM [falling, partial curve, poor fit]. On to `O=C(O)CC/C(=N\Nc1ccc(Cl)cc1)c1cccs1`, for which, under setting [1], the half-maximal activity concentration (AC50) was 35.5 µM [falling, single point]. For the compound `Cc1cc2nc(-c3ccc(SCC(=O)N4CCN(C(=O)c5ccco5)CC4)nc3)[nH]c2cc1C`, the AC50 under setting [1] was 32.6 µM [falling, single point]. Turning to `COC(=O)c1cc(NC(=O)c2cccs2)ccc1N1CCOCC1`, under setting [1], the half-maximal activity concentration (AC50) was 15.8 µM [falling, partial curve, poor fit]. Same read-out and setting: to `CC(C)C[C@@]12C(=O)N(c3ccc(Br)cc3)C(=O)N1[C@H](c1ccc(Br)cc1)[C@@H]1C(=O)N(C(C)(C)C)C(=O)[C@@H]12` belongs 7.08 µM [falling, partial curve, poor fit]; to `COc1cccc(NC(=S)N2CCCC2c2ccc(OC)c(OC)c2)c1` (stereo not drawn), 3.16 µM [rising, partial curve, poor fit]. With `C/C(CC(=O)Nc1ccccn1)=N\NC(=O)c1ccccc1O`, the AC50 under setting [1] is 1.78 µM [falling, full curve]. On to `CCCCC(=O)Nc1cccc(NC(=O)c2ccc3c(c2)OCO3)c1`, for which the half-maximal activity concentration (AC50) under setting [1] is 0.82 µM [falling, full curve]. With `COc1ccc(NC(=O)/C(Cl)=C(/Cl)S(=O)(=O)Cc2ccccc2)cn1`, the AC50 under setting [1] is 5.8 µM [falling, full curve, poor fit]. Consider `CC1(C)C2CCC(C2)C1C/C=N/NC(N)=S` (stereo not drawn), for which the AC50 under setting [2] is 35.5 µM [falling, single point].

Consider `COc1ccc(CN2CCC(CO)(Cc3cccc(C(F)(F)F)c3)CC2)cc1Cn1cccn1`, for which, under setting [1], the half-maximal activity concentration (AC50) was 11.2 µM [falling, partial curve, poor fit]. As to `Cc1cc(C)nc(NS(=O)(=O)c2ccc(NC(=O)CSc3nc(-c4ccccc4)c(C#N)c(=O)[nH]3)cc2)n1`, under setting [1], the concentration at half-maximal activity (AC50) is 20 µM [falling, partial curve]. For the compound `COc1ccc(/C=N/N=C2/NC(=O)C(CC(=O)O)S2)cc1OCc1ccccc1Cl` (stereo not drawn), the concentration at half-maximal activity (AC50) under setting [1] is 14.6 µM [rising, partial curve].
